Some of the results follow.
compound: C1=CC=C(C=C1)[C@H](COC2=CC3=C(C=C2)NC(=O)N3)NC(=O)C4=CC=CN(C4=O)CC5=CC(=C(C=C5)F)F; test: log2 fold change, soluble protein after heating vs DMSO (PISA); higher = thermal stabilisation; K562 lysate, 10 uM; active = over 0.2 and 3.5 SD of the protein, either way, in both replicates (recomputed)
Method in brief: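 A 30 min treatment with 10 μM compound was applied to crude K562 extract at 1 mg/mL protein in PBS pH 7.4 with 1 mM MgCl2. Heating for 3 min spanned 48°C-58°C, after which aliquots were pooled, adjusted to 0.5% NP-40 at 4°C and spun at 21,000xg for 90 min. TMTpro 16plex LC-MS/MS of the supernatant, with channel sums equalised, gave values recorded as log-two fold change in thermal stability against solvent controls, from duplicates.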

Chains of the proteins cited; added tags and fusions are not shown. Lines headed by an entry give the natural chain unless they say otherwise; changes in a name come on top.
UniProt Q9NX76: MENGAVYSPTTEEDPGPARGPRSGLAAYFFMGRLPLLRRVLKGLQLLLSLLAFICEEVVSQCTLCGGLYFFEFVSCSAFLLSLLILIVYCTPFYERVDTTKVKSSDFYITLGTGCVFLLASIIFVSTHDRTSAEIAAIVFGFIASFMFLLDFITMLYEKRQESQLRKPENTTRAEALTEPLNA
UniProt Q07065: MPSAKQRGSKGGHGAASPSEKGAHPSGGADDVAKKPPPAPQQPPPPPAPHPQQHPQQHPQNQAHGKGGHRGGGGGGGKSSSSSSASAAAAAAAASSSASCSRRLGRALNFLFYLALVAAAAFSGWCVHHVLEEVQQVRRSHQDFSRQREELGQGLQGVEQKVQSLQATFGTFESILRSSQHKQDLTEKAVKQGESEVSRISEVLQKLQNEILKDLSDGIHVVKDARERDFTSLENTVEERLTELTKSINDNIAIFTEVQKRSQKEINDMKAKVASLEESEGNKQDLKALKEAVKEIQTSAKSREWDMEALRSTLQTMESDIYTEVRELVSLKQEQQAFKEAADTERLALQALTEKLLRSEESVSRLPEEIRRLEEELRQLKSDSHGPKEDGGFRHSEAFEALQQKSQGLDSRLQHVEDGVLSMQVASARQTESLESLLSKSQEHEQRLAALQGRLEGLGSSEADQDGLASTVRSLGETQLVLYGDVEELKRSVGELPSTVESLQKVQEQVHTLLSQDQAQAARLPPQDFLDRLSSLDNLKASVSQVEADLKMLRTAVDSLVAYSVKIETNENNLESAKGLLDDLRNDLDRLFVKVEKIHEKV
UniProt O75122: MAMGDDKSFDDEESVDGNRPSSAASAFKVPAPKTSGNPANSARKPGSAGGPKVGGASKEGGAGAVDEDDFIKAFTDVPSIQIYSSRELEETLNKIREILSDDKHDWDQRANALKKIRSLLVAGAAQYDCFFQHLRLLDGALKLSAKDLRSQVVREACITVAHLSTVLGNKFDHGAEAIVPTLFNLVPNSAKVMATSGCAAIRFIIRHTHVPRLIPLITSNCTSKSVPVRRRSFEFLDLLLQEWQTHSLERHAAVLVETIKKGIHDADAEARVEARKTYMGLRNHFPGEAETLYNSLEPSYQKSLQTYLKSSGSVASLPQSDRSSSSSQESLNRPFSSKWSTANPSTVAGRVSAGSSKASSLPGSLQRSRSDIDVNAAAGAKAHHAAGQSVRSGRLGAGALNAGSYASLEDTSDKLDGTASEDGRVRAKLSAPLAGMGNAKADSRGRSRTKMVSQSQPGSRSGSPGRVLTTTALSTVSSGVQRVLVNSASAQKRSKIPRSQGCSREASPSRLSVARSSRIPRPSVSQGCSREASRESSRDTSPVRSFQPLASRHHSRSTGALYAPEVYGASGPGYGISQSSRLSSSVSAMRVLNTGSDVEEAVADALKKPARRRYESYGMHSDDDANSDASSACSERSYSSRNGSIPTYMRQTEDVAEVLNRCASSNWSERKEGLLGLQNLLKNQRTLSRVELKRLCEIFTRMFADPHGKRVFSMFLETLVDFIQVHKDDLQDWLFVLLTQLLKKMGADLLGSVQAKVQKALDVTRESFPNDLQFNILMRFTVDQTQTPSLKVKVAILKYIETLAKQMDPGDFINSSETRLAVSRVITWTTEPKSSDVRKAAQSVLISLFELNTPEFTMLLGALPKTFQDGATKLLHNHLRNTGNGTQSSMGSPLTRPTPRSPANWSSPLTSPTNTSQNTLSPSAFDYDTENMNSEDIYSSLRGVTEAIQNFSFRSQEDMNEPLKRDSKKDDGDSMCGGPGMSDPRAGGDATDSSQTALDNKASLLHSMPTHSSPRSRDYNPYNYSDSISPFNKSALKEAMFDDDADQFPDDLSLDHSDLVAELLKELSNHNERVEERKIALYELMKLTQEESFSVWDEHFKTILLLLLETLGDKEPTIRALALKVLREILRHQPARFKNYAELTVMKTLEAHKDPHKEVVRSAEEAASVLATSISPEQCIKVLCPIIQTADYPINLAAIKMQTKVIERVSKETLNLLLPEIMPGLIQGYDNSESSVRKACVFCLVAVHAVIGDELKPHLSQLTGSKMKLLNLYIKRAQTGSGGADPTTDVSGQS
UniProt Q9H6Q4: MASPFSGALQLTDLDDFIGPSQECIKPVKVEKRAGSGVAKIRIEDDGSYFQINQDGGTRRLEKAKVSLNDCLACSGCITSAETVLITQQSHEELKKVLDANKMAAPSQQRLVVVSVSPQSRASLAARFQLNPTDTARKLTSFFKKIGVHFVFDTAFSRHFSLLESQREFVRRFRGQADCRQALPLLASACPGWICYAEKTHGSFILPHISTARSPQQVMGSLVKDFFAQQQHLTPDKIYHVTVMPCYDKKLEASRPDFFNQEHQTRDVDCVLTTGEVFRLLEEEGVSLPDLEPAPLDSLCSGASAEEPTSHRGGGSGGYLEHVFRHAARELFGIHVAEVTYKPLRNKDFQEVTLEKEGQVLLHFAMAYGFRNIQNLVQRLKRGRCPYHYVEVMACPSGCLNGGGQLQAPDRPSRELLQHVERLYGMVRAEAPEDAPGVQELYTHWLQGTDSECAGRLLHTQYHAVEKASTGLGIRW
UniProt P56749: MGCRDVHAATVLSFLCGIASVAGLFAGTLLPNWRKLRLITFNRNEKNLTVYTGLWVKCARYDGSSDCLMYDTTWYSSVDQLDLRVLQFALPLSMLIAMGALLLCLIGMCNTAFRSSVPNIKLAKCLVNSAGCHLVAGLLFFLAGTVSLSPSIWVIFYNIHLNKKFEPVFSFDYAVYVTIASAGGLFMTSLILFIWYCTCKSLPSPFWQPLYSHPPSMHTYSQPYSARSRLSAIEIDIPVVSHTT
UniProt Q9H5X1: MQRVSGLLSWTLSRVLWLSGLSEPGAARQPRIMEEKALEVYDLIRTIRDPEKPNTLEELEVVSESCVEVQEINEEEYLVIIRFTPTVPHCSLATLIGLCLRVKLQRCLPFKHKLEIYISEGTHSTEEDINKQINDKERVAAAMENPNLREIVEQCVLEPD
UniProt Q96NY7: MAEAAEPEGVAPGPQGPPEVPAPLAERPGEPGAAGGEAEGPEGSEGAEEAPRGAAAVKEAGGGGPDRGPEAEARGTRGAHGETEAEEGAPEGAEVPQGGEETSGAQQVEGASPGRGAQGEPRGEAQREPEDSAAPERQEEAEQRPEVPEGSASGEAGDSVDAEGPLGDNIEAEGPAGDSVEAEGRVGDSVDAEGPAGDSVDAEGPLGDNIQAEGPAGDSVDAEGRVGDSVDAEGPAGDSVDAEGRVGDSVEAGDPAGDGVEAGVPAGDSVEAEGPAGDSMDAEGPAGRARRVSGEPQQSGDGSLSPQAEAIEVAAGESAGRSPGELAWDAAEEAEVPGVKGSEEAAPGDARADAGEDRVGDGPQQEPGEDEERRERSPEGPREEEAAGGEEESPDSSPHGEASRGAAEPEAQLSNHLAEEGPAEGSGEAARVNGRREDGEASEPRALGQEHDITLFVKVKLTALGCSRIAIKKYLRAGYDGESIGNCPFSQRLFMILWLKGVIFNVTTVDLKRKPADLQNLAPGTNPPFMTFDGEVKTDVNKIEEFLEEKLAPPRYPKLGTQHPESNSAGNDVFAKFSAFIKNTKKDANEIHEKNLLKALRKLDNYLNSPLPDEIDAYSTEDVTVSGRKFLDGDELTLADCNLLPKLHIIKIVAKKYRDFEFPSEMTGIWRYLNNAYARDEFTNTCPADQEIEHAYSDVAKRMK
UniProt Q9UBY8, whole entry, looked up: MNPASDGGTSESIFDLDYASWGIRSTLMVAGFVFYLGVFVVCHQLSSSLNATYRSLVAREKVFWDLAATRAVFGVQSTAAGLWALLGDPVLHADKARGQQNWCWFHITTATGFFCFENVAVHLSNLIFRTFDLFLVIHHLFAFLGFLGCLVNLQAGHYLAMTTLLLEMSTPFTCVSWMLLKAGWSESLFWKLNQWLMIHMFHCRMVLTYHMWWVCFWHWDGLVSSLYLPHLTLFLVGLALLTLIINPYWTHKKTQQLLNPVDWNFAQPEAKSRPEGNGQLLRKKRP
UniProt P0CG13, whole entry, looked up: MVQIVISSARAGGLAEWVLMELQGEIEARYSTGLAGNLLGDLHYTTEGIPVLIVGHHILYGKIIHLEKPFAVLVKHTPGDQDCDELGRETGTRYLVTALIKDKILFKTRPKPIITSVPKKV
UniProt Q8IZ52: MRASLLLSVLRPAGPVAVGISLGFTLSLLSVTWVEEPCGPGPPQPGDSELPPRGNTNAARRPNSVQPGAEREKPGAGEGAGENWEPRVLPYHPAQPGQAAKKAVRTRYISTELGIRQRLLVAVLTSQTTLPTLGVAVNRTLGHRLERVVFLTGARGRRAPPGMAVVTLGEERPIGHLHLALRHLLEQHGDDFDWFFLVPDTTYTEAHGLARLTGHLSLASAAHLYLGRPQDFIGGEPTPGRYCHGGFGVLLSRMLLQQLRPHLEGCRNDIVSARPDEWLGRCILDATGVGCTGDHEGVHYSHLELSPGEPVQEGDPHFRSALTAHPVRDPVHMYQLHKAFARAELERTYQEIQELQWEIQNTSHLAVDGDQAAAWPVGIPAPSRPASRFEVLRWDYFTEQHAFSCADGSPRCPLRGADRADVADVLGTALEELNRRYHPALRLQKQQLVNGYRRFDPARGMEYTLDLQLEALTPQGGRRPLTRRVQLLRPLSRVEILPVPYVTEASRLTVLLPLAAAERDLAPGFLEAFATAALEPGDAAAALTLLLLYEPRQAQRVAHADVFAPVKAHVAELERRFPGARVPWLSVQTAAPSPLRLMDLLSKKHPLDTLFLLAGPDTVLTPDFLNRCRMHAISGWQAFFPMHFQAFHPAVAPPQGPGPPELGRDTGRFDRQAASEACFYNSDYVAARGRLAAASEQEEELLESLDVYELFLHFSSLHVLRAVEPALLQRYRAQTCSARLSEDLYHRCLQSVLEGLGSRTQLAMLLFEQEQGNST
UniProt Q15846: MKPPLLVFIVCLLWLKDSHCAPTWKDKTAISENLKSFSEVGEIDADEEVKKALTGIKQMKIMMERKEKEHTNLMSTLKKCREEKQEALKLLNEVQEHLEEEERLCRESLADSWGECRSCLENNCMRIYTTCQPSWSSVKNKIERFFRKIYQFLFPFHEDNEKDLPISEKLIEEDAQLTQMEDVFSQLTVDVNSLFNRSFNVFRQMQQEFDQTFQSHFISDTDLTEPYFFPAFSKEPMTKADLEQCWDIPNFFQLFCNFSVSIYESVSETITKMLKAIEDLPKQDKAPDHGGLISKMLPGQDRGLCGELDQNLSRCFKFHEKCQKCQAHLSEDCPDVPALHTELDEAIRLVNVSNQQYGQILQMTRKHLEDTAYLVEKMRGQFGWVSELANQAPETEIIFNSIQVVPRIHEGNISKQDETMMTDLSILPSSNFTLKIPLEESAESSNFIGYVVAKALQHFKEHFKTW
UniProt Q13111, whole entry, looked up: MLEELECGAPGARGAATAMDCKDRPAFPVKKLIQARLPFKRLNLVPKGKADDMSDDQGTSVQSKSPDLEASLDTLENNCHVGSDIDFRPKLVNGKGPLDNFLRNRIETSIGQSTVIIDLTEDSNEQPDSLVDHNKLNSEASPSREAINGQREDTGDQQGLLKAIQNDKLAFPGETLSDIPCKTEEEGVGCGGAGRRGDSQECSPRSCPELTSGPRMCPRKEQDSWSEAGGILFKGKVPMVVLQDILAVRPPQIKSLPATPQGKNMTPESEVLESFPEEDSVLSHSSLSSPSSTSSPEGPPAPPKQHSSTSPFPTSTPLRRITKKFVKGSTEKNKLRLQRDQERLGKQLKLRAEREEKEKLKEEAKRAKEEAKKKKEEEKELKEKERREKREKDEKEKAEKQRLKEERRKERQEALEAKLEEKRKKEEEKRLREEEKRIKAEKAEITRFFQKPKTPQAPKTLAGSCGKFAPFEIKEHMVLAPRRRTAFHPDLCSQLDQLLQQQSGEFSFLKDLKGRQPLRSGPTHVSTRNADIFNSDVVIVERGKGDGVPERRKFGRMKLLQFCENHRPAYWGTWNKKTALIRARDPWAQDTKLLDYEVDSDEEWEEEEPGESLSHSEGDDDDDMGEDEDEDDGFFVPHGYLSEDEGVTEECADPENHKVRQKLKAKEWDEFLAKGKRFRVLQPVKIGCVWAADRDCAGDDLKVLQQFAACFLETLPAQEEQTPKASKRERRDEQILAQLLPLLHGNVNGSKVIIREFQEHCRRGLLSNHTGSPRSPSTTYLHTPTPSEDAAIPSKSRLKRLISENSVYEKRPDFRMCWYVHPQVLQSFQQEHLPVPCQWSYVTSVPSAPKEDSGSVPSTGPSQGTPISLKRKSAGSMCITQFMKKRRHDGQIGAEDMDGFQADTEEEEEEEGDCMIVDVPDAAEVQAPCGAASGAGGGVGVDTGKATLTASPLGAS
UniProt Q9NY35: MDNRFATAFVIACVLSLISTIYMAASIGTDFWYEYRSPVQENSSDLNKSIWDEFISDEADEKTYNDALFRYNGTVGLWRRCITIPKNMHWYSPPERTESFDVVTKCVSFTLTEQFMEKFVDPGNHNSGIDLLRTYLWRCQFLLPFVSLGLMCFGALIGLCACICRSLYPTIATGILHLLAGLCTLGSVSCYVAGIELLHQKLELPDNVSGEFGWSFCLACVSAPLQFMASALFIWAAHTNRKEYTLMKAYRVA

| Target | log2 fold change |
| --- | --- |
| CMTM6 (UniProt Q9NX76) | inactive: 0.003 |
| CKAP4 (UniProt Q07065) | inactive: 0.005 |
| CLASP2 (UniProt O75122) | inactive: 0.16 |
| CLN5 (UniProt O75503) | inactive: -0.02 |
| CIAO3 (UniProt Q9H6Q4) | inactive: -0.007 |
| CLDN12 (UniProt P56749) | inactive: 0.064 |
| CIAO2A (UniProt Q9H5X1) | inactive: -0.049 |
| CLIC6 (UniProt Q96NY7) | inactive: 0.098 |
| CKMT1A (UniProt P12532) | inactive: 0.049 |
| CLIP1 isoform 1 (UniProt P30622) | inactive: 0.04 |
| CLCC1 (UniProt Q96S66) | inactive: 0.023 |
| CHD5 (UniProt Q8TDI0) | inactive: -0.039 |
| CLN8 (UniProt Q9UBY8) | inactive: -0.215 |
| CLEC16A isoform 2 (UniProt Q2KHT3) | inactive: -0.035 |
| CKAP5 (UniProt Q14008) | inactive: -0.008 |
| CHTF8 (UniProt P0CG13) | inactive: -0.116 |
| CHPF (UniProt Q8IZ52) | inactive: -0.064 |
| CHMP4A (UniProt H0YIN6) | inactive: 0.032 |
| CLIP4 (UniProt Q8N3C7) | inactive: -0.081 |
| CLUL1 (UniProt Q15846) | inactive: -0.204 |
| CHAF1A (UniProt Q13111) | inactive: -0.099 |
| CLDND1 (UniProt Q9NY35) | inactive: 0.007 |
| CLEC16A (UniProt Q2KHT3) | inactive: 0.011 |

A different layout for part of the listing above.
CLASP2 (UniProt O75122)
  log2 fold change: inactive: 0.16
CLN5 (UniProt O75503)
  log2 fold change: inactive: -0.02
